Laboratory results taken from article PMC7830406.
No constants are given. Whether binding was seen depends on the method and setting. Binding can be weak; no strength is given. Where a sequence is shown, tags or fusion partners need not be part of it. For part of these data: Binding seen in cells or lysates may run through a third protein.

What was measured:
[1] = target: T1, 14–3–3 ε-nYFP (Arabidopsis thaliana) (UniProt P48347); test: split reporter; BiFC (split YFP, pBiFCt-2in1-CC, RFP as transformation control) in N. benthamiana leaf epidermal cells, confocal microscopy
T1 sequence: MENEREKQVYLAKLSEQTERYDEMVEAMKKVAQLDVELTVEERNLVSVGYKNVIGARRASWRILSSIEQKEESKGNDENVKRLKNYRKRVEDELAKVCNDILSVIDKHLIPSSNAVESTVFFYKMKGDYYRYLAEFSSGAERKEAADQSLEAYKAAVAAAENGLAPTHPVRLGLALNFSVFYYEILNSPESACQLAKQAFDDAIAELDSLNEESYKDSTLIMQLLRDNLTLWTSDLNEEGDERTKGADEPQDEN

[2] = target: T2, 14–3–3 ε, GAL4 DNA-binding domain fusion (bait) (Arabidopsis thaliana) (UniProt P48347); test: two-hybrid; yeast MaV203; bait 14-3-3 ε as GAL4 BD fusion, preys bZIP as GAL4 AD fusions; growth on SC -L/-T/-H + 10 mM 3AT, 28 °C, 5 days
T2 sequence: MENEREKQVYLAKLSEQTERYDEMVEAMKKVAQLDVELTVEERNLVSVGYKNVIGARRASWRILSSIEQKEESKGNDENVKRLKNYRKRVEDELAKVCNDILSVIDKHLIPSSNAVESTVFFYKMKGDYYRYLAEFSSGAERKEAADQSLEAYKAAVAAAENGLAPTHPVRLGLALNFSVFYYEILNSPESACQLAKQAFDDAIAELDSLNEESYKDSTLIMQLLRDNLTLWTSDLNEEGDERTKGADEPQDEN

[3] = target: bZIP52-nYFP (Arabidopsis thaliana); test: split reporter; BiFC (split YFP, pBiFCt-2in1-CC, RFP as transformation control) in N. benthamiana leaf epidermal cells, confocal microscopy

Molecule: bZIP52-cYFP (Arabidopsis thaliana)
- binding [1]: binds

Molecule: bZIP52, GAL4 activation domain fusion (prey) (Arabidopsis thaliana)
- binding [2]: binds

Molecule: bZIP52-S40A/S117A-cYFP (Arabidopsis thaliana)
- binding [1]: no binding

Molecule: bZIP52-S40A, GAL4 activation domain fusion (prey) (Arabidopsis thaliana)
- binding [2]: no binding

Molecule: bZIP52-S40A-cYFP (Arabidopsis thaliana)
- binding [1]: binds weakly

Molecule: bZIP52-S117A-cYFP (Arabidopsis thaliana)
- binding [1]: binds weakly

Molecule: bZIP52-S40A/S117A, GAL4 activation domain fusion (prey) (Arabidopsis thaliana)
- binding [2]: no binding

Molecule: bZIP52-S117A, GAL4 activation domain fusion (prey) (Arabidopsis thaliana)
- binding [2]: binds

B1: bZIP18-cYFP (protein, UniProt O22873 1-367)
chain: MEDPSNPQPNQSNLSQCPPLATAPTPAPVRGPYHRRAHSEVQFRLPEDLDLSEPFGGFDELGSEDDLFCSYMDIEKLGSGSGSASDSAGPSAPRSDNPFSAENGGAEAGNSRPRHRHSLSVDGSSTLESIEAKKAMAPDKLAELWVVDPKRAKRIIANRQSAARSKERKARYILELERKVQTLQTEATTLSAQLSLFQRDTTGLSSENTELKLRLQVMEQQAKLRDALNEQLKKEVERLKFATGEVSPADAYNLGMAHMQYQQQPQQSFFQHHHQQQTDAQNLQQMTHQFHLFQPNNNQNQSSRTNPPTAHQLMHHATSNAPAQSHSYSEAMHEDHLGRLQGLDISSCGRGSNFGRSDTVSESSSTM
- binding [3]: binds
